Source: PubChem BioAssay AID1224831 (NIAID, 2016)

Aim: 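Retesting screen hits on the TLR4-driven TNF response with six separate siRNAs each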 (follow-up of hits)
System: human THP-1 B5 monocytic leukaemia cells carrying a TNF promoter luciferase reporter, made macrophage-like with PMA
Reagents: single siRNA against human genes, 50 nM
Timing: about 68 h of knock-down, then 4 h LPS
Conditions: LPS (Salmonella minnesota, TLR-grade) at 10 ng/ml for 4 h; PMA 5 ng/ml present during knock-down
Measurement: 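Firefly to renilla luciferase ratio of a TNF promoter reporter after 4 h LPS, scaled to plate median, turned into robust z-score, averaged over replicates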
Direction: TNF reporter z-score: higher = stronger LPS-induced TNF reporter signal; z-score, median over gene's siRNAs: higher = stronger TNF reporter signal across the gene's siRNAs
Call rule: 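Active when the replicate mean z-score is about -1 or lower, or about 1.5 or higher; lowered and raised TNF reporter signal both count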
Calls: active = changed TNF reporter (either direction); inactive = little change
Shown is a random part of about 3,500 reagents tested. 731 of them (21%) were called active. 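Active means either lowered or raised reporter signal; the gene-median score did not drive the per-siRNA calls.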 The numbers tell different reagents against one gene apart.

Depletion of PCDHA3 (protocadherin alpha 3) #1 came out at: TNF reporter z-score, replicate mean 1.34; z-score, median over gene's siRNAs -0.47; inactive.
PCDHA3 (protocadherin alpha 3) #2 showed TNF reporter z-score, replicate mean -0.13; z-score, median over gene's siRNAs -0.47; inactive.
For PCDHA3 (protocadherin alpha 3) #3 the deposit lists TNF reporter z-score, replicate mean -0.38; z-score, median over gene's siRNAs -0.47; inactive.
After knock-down of PCDHA3 (protocadherin alpha 3) #4 the results were TNF reporter z-score, replicate mean -0.56; z-score, median over gene's siRNAs -0.47; inactive.
PCDHA3 (protocadherin alpha 3) #5 gave TNF reporter z-score, replicate mean -0.7; z-score, median over gene's siRNAs -0.47; inactive.
PCDHA3 (protocadherin alpha 3) #6 gave TNF reporter z-score, replicate mean -0.7; z-score, median over gene's siRNAs -0.47; inactive.
PVRIG (PVR related immunoglobulin domain containing) #1 scored TNF reporter z-score, replicate mean -0.05; z-score, median over gene's siRNAs -0.11; inactive.
Knock-down of PVRIG (PVR related immunoglobulin domain containing) #2 gave: TNF reporter z-score, replicate mean -0.23; z-score, median over gene's siRNAs -0.11; inactive.
For PVRIG (PVR related immunoglobulin domain containing) #3, the entry reads TNF reporter z-score, replicate mean 0.01; z-score, median over gene's siRNAs -0.11; inactive.
For PVRIG (PVR related immunoglobulin domain containing) #4 the deposit lists TNF reporter z-score, replicate mean -0.17; z-score, median over gene's siRNAs -0.11; inactive.
With knock-down of PVRIG (PVR related immunoglobulin domain containing) #5, the screen gave TNF reporter z-score, replicate mean -0.23; z-score, median over gene's siRNAs -0.11; inactive.
PVRIG (PVR related immunoglobulin domain containing) #6 gave TNF reporter z-score, replicate mean 1.63; z-score, median over gene's siRNAs -0.11; active.
Silencing of FDX1 (ferredoxin 1) #1 resulted in: TNF reporter z-score, replicate mean -1.26; z-score, median over gene's siRNAs -0.02; active.
Silencing of FDX1 (ferredoxin 1) #2 gave: TNF reporter z-score, replicate mean -1.21; z-score, median over gene's siRNAs -0.02; active.
Against FDX1 (ferredoxin 1) #3, the values are TNF reporter z-score, replicate mean 0.18; z-score, median over gene's siRNAs -0.02; inactive.
After knock-down of FDX1 (ferredoxin 1) #4 the results were TNF reporter z-score, replicate mean -0.05; z-score, median over gene's siRNAs -0.02; inactive.
With knock-down of FDX1 (ferredoxin 1) #5, the record shows TNF reporter z-score, replicate mean 0.24; z-score, median over gene's siRNAs -0.02; inactive.
FDX1 (ferredoxin 1) #6 showed TNF reporter z-score, replicate mean 0.01; z-score, median over gene's siRNAs -0.02; inactive.
Depletion of ISOC2 (isochorismatase domain containing 2) #1 gave: TNF reporter z-score, replicate mean 0.93; z-score, median over gene's siRNAs 0.8; inactive.
ISOC2 (isochorismatase domain containing 2) #2 gave TNF reporter z-score, replicate mean 0.67; z-score, median over gene's siRNAs 0.8; inactive.
Depletion of ISOC2 (isochorismatase domain containing 2) #3 came out at: TNF reporter z-score, replicate mean 2.24; z-score, median over gene's siRNAs 0.8; active.
With knock-down of ISOC2 (isochorismatase domain containing 2) #4 the results were TNF reporter z-score, replicate mean -1.25; z-score, median over gene's siRNAs 0.8; active.
After knock-down of ISOC2 (isochorismatase domain containing 2) #5, the record shows TNF reporter z-score, replicate mean -0.15; z-score, median over gene's siRNAs 0.8; inactive.
After knock-down of ISOC2 (isochorismatase domain containing 2) #6, the record shows TNF reporter z-score, replicate mean 1.2; z-score, median over gene's siRNAs 0.8; inactive.
After knock-down of SIRPD (signal regulatory protein delta) #1, the record shows TNF reporter z-score, replicate mean 0.28; z-score, median over gene's siRNAs 0.395; inactive.
Silencing of SIRPD (signal regulatory protein delta) #2 came out at: TNF reporter z-score, replicate mean 0.47; z-score, median over gene's siRNAs 0.395; inactive.
With knock-down of SIRPD (signal regulatory protein delta) #3, the screen gave TNF reporter z-score, replicate mean 0.66; z-score, median over gene's siRNAs 0.395; inactive.
For SIRPD (signal regulatory protein delta) #4, the entry reads TNF reporter z-score, replicate mean 1.75; z-score, median over gene's siRNAs 0.395; active.
For SIRPD (signal regulatory protein delta) #5 the deposit lists TNF reporter z-score, replicate mean 0.32; z-score, median over gene's siRNAs 0.395; inactive.
For SIRPD (signal regulatory protein delta) #6, the entry reads TNF reporter z-score, replicate mean 0.09; z-score, median over gene's siRNAs 0.395; inactive.
Knock-down of NCOA6 (nuclear receptor coactivator 6) #1 resulted in: TNF reporter z-score, replicate mean -0.37; z-score, median over gene's siRNAs -0.415; inactive.
Knock-down of NCOA6 (nuclear receptor coactivator 6) #2 came out at: TNF reporter z-score, replicate mean -0.54; z-score, median over gene's siRNAs -0.415; inactive.
NCOA6 (nuclear receptor coactivator 6) #3 gave TNF reporter z-score, replicate mean -0.9; z-score, median over gene's siRNAs -0.415; inactive.
Silencing of NCOA6 (nuclear receptor coactivator 6) #4 gave: TNF reporter z-score, replicate mean 0.12; z-score, median over gene's siRNAs -0.415; inactive.
With knock-down of NCOA6 (nuclear receptor coactivator 6) #5 the results were TNF reporter z-score, replicate mean -0.46; z-score, median over gene's siRNAs -0.415; inactive.
Silencing of NCOA6 (nuclear receptor coactivator 6) #6 resulted in: TNF reporter z-score, replicate mean -0.32; z-score, median over gene's siRNAs -0.415; inactive.
Knock-down of MAD1L1 (mitotic arrest deficient 1 like 1) #1 came out at: TNF reporter z-score, replicate mean 0.06; z-score, median over gene's siRNAs 0.28; inactive.
MAD1L1 (mitotic arrest deficient 1 like 1) #2 scored TNF reporter z-score, replicate mean 1.03; z-score, median over gene's siRNAs 0.28; inactive.
MAD1L1 (mitotic arrest deficient 1 like 1) #3 scored TNF reporter z-score, replicate mean -1.06; z-score, median over gene's siRNAs 0.28; active.
With knock-down of MAD1L1 (mitotic arrest deficient 1 like 1) #4, the record shows TNF reporter z-score, replicate mean 0.61; z-score, median over gene's siRNAs 0.28; inactive.
For MAD1L1 (mitotic arrest deficient 1 like 1) #5, the values are TNF reporter z-score, replicate mean -0.14; z-score, median over gene's siRNAs 0.28; inactive.
Silencing of MAD1L1 (mitotic arrest deficient 1 like 1) #6 resulted in: TNF reporter z-score, replicate mean 0.5; z-score, median over gene's siRNAs 0.28; inactive.

Ordered by “z-score, median over gene's siRNAs” (highest first): some entries from above.
SIRPD (signal regulatory protein delta) #1 | TNF reporter z-score, replicate mean: 0.28; z-score, median over gene's siRNAs: 0.395; outcome: inactive
SIRPD (signal regulatory protein delta) #2 | TNF reporter z-score, replicate mean: 0.47; z-score, median over gene's siRNAs: 0.395; outcome: inactive
SIRPD (signal regulatory protein delta) #3 | TNF reporter z-score, replicate mean: 0.66; z-score, median over gene's siRNAs: 0.395; outcome: inactive
SIRPD (signal regulatory protein delta) #4 | TNF reporter z-score, replicate mean: 1.75; z-score, median over gene's siRNAs: 0.395; outcome: active
SIRPD (signal regulatory protein delta) #5 | TNF reporter z-score, replicate mean: 0.32; z-score, median over gene's siRNAs: 0.395; outcome: inactive
SIRPD (signal regulatory protein delta) #6 | TNF reporter z-score, replicate mean: 0.09; z-score, median over gene's siRNAs: 0.395; outcome: inactive
NCOA6 (nuclear receptor coactivator 6) #1 | TNF reporter z-score, replicate mean: -0.37; z-score, median over gene's siRNAs: -0.415; outcome: inactive
